PubChem BioAssay AID1224826 – NIAID, 2016

- Purpose: 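Genes that change LPS-induced Tnf promoter activity in mouse macrophages when knocked down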 (primary screen)
- Cell system: RAW264.7 G9 macrophages from mouse bearing reporters for p65 (GFP) and the Tnf promoter (mCherry)
- Knock-down reagent: siRNA pool against mouse genes, 100 nM
- Timing: 16 h of LPS stimulation, after 2 days of siRNA transfection
- Conditions: bacterial lipopolysaccharide (Salmonella minnesota R595), 10 ng/ml
- Measured: 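Imaged Tnf reporter mCherry in nuclei, minus background, normalised per plate to the median and expressed as robust z-scores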
- Scale: Tnf reporter robust z-score: higher = stronger Tnf promoter reporter signal after LPS
- Rule for the call: 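Called active when robust z-score is at most -1.3, matching the median of the Tlr4 knock-down control, or over 3; control wells and wells with under 50 cells never active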
- Meaning of the calls: active = Tnf reporter clearly lowered or raised; inactive = no clear change in Tnf reporter
Here is one part, drawn at random, of about 17,000 deposited reagents. About 1,110 of all reagents (6.6%) count as active. 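Active means lowered or raised reporter signal; replicate intensities are raw and not normalised per plate.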 Not all columns of the deposit are shown. Reagent sequences are not shown.

Or6c202
- fewer than 50 cells in well: fewer than 50 cells per well; well left out of calls
- outcome: inactive

Prcp
- Tnf reporter robust z-score: 0.05
- fewer than 50 cells in well: enough cells in well
- outcome: inactive

Trnt1
- Tnf reporter robust z-score: -1.24
- fewer than 50 cells in well: enough cells in well
- outcome: inactive

Map3k20
- Tnf reporter robust z-score: 0.67
- fewer than 50 cells in well: enough cells in well
- outcome: inactive

Agxt
- Tnf reporter robust z-score: -0.22
- fewer than 50 cells in well: enough cells in well
- outcome: inactive

Crygf
- Tnf reporter robust z-score: -1.16
- fewer than 50 cells in well: enough cells in well
- outcome: inactive

C130021I20Rik
- Tnf reporter robust z-score: -0.88
- fewer than 50 cells in well: enough cells in well
- outcome: inactive

Ythdf3
- Tnf reporter robust z-score: 1.91
- fewer than 50 cells in well: enough cells in well
- outcome: inactive

Or52e15
- Tnf reporter robust z-score: -1.74
- fewer than 50 cells in well: enough cells in well
- outcome: active

Mageh1
- Tnf reporter robust z-score: 1.29
- fewer than 50 cells in well: enough cells in well
- outcome: inactive

Clec4n
- Tnf reporter robust z-score: -1.22
- fewer than 50 cells in well: enough cells in well
- outcome: inactive

Memo1
- Tnf reporter robust z-score: 2.23
- fewer than 50 cells in well: enough cells in well
- outcome: inactive

Just “fewer than 50 cells in well” (2 entries from above):
Or52e15	enough cells in well
Mageh1	enough cells in well
